The results in this text go back to the supplement of paper PMC12823440, “Inhibitors supercharge kinase turnover through native proteolytic circuits” (Nature, 2025).

By UniProt entry, the sequences of proteins in these tests, tags left out. Where a name states a change or a piece, a line headed by the entry shows the natural chain unless it says otherwise.
UniProt Q01974, whole entry: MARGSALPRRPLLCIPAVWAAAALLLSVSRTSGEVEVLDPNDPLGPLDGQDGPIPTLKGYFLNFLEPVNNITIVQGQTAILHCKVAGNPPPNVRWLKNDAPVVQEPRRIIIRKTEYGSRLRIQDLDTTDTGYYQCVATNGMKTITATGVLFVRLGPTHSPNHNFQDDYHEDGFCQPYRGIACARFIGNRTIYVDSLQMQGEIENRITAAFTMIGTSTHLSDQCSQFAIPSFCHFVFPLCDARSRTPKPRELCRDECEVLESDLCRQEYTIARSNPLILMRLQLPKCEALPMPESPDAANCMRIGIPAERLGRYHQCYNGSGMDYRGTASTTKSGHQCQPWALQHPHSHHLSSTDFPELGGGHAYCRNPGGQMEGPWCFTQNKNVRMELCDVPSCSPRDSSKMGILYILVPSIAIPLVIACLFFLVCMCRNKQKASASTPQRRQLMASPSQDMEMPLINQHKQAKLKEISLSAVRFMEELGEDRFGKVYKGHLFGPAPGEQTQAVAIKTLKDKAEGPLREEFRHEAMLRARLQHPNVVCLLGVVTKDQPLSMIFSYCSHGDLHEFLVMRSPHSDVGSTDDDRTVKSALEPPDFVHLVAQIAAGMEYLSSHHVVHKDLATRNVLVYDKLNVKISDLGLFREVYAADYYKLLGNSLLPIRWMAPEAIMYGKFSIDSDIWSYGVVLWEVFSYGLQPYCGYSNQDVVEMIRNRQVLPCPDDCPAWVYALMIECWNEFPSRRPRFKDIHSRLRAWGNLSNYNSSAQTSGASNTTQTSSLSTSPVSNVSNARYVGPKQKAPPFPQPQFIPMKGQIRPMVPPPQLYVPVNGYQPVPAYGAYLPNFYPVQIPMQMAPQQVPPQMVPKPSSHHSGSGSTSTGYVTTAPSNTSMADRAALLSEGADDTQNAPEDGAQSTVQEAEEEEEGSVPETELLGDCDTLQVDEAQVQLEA
UniProt Q15418, whole entry: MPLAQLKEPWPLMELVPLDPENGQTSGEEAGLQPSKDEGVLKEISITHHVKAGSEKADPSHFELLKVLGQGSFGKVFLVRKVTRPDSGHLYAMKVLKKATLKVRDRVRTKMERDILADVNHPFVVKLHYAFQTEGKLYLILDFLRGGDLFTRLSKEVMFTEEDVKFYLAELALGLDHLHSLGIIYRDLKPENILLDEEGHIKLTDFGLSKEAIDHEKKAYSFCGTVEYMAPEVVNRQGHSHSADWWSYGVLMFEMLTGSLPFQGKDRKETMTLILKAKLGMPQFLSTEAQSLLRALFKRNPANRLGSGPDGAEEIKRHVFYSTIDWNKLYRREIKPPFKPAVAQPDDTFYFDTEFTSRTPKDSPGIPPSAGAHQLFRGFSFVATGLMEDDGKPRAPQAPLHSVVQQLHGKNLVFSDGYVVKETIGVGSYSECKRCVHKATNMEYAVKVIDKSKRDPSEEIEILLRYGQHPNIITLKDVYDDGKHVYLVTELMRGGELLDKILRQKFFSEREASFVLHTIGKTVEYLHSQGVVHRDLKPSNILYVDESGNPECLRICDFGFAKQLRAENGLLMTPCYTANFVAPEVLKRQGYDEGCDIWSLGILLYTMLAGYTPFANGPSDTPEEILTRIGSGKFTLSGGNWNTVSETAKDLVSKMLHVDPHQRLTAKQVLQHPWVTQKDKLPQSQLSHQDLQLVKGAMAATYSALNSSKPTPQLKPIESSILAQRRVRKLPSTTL
UniProt Q9NYA1, whole entry: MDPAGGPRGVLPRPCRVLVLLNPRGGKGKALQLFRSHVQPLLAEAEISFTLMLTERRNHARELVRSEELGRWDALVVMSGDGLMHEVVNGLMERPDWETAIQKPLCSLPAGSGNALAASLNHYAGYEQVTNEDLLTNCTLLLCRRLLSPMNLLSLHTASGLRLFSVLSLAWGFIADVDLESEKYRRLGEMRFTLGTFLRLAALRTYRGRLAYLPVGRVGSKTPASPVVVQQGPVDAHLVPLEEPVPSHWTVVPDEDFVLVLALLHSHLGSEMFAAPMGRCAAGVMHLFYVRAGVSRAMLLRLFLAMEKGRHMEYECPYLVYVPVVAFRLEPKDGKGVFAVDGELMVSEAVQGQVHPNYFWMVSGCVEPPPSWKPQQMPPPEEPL
UniProt Q9Y6E0: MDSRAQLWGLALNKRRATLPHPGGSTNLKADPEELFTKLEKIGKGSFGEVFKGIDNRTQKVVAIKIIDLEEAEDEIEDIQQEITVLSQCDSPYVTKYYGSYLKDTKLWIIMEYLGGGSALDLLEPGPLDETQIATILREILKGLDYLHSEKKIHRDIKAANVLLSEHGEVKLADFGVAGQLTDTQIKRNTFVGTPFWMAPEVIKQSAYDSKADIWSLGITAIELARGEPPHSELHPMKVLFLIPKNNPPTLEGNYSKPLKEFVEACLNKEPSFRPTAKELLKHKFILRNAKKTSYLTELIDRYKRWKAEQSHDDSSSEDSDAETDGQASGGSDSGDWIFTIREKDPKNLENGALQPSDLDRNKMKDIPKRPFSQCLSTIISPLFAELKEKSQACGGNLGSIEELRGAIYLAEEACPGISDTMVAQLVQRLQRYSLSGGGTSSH
UniProt P29597: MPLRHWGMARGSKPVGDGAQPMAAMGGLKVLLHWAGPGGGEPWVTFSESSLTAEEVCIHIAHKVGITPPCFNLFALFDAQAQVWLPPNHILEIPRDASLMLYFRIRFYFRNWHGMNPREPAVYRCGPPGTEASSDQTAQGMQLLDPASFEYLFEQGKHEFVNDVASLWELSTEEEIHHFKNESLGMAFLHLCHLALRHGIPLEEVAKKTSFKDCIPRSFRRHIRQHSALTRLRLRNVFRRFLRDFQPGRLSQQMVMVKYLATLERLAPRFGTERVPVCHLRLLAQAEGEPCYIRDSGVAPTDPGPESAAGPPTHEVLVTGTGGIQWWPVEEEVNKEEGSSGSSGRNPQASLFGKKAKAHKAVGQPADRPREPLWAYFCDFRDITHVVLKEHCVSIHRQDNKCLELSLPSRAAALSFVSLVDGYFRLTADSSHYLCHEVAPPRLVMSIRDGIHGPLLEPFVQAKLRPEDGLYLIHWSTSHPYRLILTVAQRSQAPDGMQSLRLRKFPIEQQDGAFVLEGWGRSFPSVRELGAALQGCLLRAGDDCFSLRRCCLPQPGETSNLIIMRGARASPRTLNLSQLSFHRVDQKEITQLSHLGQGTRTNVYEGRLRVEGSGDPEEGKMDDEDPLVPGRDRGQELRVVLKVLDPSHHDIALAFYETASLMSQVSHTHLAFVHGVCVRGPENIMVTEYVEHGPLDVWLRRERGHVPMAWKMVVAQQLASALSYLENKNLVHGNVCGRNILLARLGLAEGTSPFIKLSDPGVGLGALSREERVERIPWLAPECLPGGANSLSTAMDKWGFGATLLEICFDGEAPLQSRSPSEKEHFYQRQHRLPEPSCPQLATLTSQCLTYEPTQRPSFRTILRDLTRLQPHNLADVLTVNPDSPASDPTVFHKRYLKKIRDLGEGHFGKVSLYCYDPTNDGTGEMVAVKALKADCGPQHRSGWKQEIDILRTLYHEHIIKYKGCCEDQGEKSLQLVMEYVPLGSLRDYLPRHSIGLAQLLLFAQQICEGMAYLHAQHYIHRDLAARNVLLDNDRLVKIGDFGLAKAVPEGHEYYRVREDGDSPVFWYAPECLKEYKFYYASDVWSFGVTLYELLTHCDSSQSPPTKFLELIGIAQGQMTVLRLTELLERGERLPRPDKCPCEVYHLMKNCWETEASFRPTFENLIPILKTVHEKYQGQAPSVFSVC
UniProt Q6PHR2: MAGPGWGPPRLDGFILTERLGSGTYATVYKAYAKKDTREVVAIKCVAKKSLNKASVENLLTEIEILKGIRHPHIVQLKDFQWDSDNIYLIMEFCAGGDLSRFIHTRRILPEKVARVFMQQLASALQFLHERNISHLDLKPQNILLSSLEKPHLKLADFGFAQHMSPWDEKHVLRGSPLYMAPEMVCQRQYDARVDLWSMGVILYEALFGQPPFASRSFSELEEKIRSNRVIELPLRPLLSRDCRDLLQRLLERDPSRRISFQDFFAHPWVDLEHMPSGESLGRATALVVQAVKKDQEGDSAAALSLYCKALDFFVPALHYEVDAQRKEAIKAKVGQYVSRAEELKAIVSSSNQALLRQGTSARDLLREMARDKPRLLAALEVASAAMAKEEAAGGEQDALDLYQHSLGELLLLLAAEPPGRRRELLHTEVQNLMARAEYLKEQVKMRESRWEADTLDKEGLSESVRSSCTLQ
UniProt P07947, whole entry, looked up: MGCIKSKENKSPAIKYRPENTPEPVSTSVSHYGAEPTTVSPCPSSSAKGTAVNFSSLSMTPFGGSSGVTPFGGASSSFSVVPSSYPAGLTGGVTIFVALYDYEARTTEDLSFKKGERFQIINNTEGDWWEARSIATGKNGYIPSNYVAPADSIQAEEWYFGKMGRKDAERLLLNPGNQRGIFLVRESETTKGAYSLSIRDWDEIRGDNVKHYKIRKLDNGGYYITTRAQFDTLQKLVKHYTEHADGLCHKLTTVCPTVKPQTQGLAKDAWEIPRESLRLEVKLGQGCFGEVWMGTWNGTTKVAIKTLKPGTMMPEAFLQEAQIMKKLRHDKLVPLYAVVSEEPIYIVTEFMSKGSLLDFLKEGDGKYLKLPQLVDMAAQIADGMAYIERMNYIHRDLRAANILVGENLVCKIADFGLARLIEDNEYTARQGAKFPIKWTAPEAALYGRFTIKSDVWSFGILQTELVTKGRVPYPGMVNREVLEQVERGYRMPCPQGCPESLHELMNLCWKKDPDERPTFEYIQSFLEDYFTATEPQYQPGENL
UniProt P43403: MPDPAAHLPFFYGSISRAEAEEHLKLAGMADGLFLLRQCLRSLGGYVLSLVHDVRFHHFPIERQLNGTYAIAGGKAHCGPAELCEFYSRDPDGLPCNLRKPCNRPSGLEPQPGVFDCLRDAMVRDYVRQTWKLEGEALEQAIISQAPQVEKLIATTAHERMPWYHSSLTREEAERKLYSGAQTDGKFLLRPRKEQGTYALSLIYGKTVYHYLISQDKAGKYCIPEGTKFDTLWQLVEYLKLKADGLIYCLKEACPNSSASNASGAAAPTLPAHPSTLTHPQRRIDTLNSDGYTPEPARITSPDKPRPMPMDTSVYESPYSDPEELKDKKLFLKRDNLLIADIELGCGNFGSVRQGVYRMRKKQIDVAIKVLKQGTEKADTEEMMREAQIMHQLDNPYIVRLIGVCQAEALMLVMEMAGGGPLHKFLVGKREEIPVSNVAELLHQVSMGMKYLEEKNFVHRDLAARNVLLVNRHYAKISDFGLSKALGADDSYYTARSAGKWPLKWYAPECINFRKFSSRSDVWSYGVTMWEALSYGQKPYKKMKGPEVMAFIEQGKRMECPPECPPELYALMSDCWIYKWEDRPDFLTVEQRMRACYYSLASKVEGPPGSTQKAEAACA
UniProt P11802: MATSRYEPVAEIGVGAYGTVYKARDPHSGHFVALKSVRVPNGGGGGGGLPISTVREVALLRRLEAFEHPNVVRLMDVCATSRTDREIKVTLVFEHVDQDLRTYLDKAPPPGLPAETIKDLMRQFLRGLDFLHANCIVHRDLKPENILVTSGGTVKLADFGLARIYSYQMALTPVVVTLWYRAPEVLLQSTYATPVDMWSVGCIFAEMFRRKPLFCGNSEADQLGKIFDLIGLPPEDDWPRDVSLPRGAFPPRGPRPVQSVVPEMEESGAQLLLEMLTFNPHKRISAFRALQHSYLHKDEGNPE
UniProt P50613: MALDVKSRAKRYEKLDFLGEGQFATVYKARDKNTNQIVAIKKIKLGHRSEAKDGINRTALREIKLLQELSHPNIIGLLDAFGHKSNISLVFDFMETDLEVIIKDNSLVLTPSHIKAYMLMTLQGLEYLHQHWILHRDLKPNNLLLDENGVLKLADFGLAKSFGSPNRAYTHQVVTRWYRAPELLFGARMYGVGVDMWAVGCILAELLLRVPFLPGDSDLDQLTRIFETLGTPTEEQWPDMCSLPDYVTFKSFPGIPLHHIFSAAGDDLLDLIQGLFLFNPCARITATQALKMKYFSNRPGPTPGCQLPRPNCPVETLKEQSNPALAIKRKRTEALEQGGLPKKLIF
UniProt P50750, whole entry: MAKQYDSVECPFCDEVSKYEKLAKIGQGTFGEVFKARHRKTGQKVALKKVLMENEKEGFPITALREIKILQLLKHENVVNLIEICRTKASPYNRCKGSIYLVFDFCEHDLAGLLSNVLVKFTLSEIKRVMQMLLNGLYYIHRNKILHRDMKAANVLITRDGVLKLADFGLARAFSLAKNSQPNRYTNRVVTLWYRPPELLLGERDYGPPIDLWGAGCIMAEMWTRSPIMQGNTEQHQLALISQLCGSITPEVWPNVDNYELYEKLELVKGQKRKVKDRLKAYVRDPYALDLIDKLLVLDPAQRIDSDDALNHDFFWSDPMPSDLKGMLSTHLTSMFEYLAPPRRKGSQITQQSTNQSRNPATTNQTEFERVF

Where a name gives a salt, the structure may show the parent alone. The list shows a part of the results. Hit calls seldom repeat between salt and free forms of one compound.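 In K562 cells expressing nanoluciferase-fused kinases, luminescence was recorded at 4 h intervals between 2 and 18 h, normalized as percent of control with DMSO at 100% and a positive control at 0%. A significant (2 sigma) signal drop marks a time point as decreased. The authors' rule for a hit is not shown and takes in more than the number of time points.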

What all share (conditions): K562; 2-18 h
Assay [1] deals with ROR2 (UniProt Q01974). The assay is described as follows: number of time points (of 5) at which kinase-Nluc abundance scored as decreased, DMSO-normalised (count); higher = more persistent destabilization.
For assay [2], the target named is RPS6KA1 (UniProt Q15418). The assay is described as above.
Assay [3] addresses SPHK1 (UniProt Q9NYA1). The assay is described as above.
For assay [4], the target named is SRC (UniProt P12931). The assay is described as above.
In assay [5] the target is STK24 (UniProt Q9Y6E0). The assay is described as above.
Assay [6] concerns the target STK38 (UniProt Q15208). Described as above.
Assay [7] deals with SYK (UniProt P43405). The description is as above.
In assay [8] the target is TEC (UniProt P42680). Described as above.
Assay [9] addresses TYK2 (UniProt P29597). The assay is described as above.
The target of assay [10] is ULK3 (UniProt Q6PHR2). The assay is described as above.
For assay [11], the target named is YES1 (UniProt P07947). The assay is described as above.
Assay [12] addresses ZAK (UniProt Q9NYL2). The assay is described as above.
Assay [13] deals with ZAP70 (UniProt P43403). Described as above.
Assay [14] addresses CDK4 (UniProt P11802). The assay can be described thus: number of time points (of 4; 2 h point missing) at which kinase-Nluc abundance scored as decreased, DMSO-normalised (count); higher = more persistent destabilization.
In assay [15] the target is CDK7 (UniProt P50613). Described as above.
Assay [16] addresses CDK9 (UniProt P50750). The assay is described as above.

Regarding `CCN1CCN(Cc2cnc(Nc3cc(-c4cc(F)c5nc(C)n(C(C)C)c5c4)c(F)cn3)nc2)CC1` (10 µM), the “number of time points” value in assay [1], in [2], in [3], in assay [4], in assay [5] and in assay [6] was 0 each time. Besides, the “number of time points” value in [7] worked out at 0; in [8], 1; in assay [9] it was 0; in assay [10] it was 0; in assay [11] it was 0; in assay [12], 0. Moreover, the “number of time points” value in assay [13], in assay [14], in assay [15] and in [16] was 0 each time.

Consider `C=CC(=O)Nc1cc(Nc2nccc(-c3cn(C)c4ccccc34)n2)c(OC)cc1OCCN(C)C` [Rezivertinib] (2.5 µM), for which the “number of time points” value in assay [1] stood at 0; in assay [2], 0; in assay [3] it was 1; in [4] it was 0; in assay [5] it was 0; in assay [6], 0. Moreover, the “number of time points” value in assay [7], in assay [8], in assay [9], in assay [10], in [11] and in assay [12] was 0 in each case. For the same compound, the “number of time points” value in assay [13], in assay [14], in [15] and in assay [16] was 0 each time.

Take `CCCCCc1ccc(/C=C/[C@H](O)[C@@H](CO)NC)cc1` [SK1-I (hydrochloride)] (10 µM): the “number of time points” value in assay [1], in assay [2], in assay [3], in assay [4], in assay [5] and in assay [6] was 0 throughout. Also, the “number of time points” value in assay [7], in assay [8], in assay [9], in assay [10], in [11] and in assay [12] was 0 throughout. Besides, the “number of time points” value in assay [13], in assay [14], in assay [15] and in [16] was 0 in each case.

Take `NC(=O)c1cnc(-c2ccc(C3(N)CCC3)cc2)c(-c2ccccc2)c1` (10 µM): the “number of time points” value in assay [1], in assay [2], in assay [3], in assay [4], in assay [5] and in assay [6] was 0 in each case. The “number of time points” value in assay [7], in assay [8], in assay [9], in [10], in assay [11] and in assay [12] was 0 each time. In addition, the “number of time points” value in assay [13], in assay [14], in assay [15] and in assay [16] was 0 each time.

For the compound `Oc1c(F)cc(-c2cnccc2-c2ccc(N3CCOCC3)cc2)cc1F` (10 µM), the “number of time points” value in assay [1], in assay [2], in assay [3], in assay [4], in assay [5] and in assay [6] was 0 throughout. Further, the “number of time points” value in assay [7], in assay [8], in [9], in assay [10], in [11] and in assay [12] was 0 each time. In addition, the “number of time points” value in assay [13], in [14], in assay [15] and in [16] was 0 in each case.

For `Cn1c(=O)c2c(nc(S(C)(=O)=O)n2C)n(CC#Cc2cccc(O)c2)c1=O` (2.5 µM), the “number of time points” value in assay [1], in assay [2], in [3], in [4], in [5] and in assay [6] was 0 each time. The “number of time points” value in [7] turned out to be 0; in [8] it was 0; in assay [9], 1; in assay [10] it was 1; in assay [11], 0; in [12], 0. Besides, the “number of time points” value in assay [13], in assay [14], in assay [15] and in assay [16] was 0 each time.

Consider `COc1ccc(Nc2ncc(C(F)(F)F)c(NC3CC3)n2)cc1OC` (10 µM), for which the “number of time points” value in assay [1], in assay [2], in [3], in [4], in [5] and in [6] was 0 throughout. The “number of time points” value was 0 in [7]; 0 in assay [8]; 3 in [9]; 4 in assay [10]; 1 in [11]; 0 in [12]. For the same compound, the “number of time points” value in [13] was 0; in [14], 0; in assay [15], 1; in assay [16] it was 0.

For `N#Cc1ccc(-c2cnc3ccc(-c4ccc(C(=O)N5CCOCC5)cc4)cn23)cc1` (10 µM), the “number of time points” value in assay [1], in [2], in assay [3], in assay [4], in [5] and in assay [6] was 0 throughout. Also, the “number of time points” value in [7], in assay [8], in assay [9], in [10], in [11] and in assay [12] was 0 in each case. For the same compound, the “number of time points” value in assay [13], in [14], in assay [15] and in [16] was 0 in each case.
